We go through 3 molecules from publication PMC8558330.

In assay [1] the target is T1, GST-VmBRXL4 (Vernicia montana).
T1 sequence: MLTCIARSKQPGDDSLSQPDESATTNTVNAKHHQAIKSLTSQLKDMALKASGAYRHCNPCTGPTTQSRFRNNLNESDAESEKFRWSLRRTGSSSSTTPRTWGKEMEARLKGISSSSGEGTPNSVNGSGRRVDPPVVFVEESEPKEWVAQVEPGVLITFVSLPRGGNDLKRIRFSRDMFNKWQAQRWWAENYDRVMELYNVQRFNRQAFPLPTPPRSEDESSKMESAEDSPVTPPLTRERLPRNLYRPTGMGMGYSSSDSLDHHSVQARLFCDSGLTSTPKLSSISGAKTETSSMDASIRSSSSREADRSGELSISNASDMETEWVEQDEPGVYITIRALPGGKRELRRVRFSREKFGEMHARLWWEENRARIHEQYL
Put plainly: pull-down; GST, GST-VmSYT3 or GST-VmBRXL4 on glutathione resin; 50 µg of total protein from V. montana root incubated overnight at 4 °C; washed with TBS (10 mM Tris, 150 mM NaCl, pH 8.0); Western blot with antiGST and antiD6PKL2; only the target purified.

The target in assay [2] is T2, GST-VmSYT3 (region of 50 aa to 538 aa) (Vernicia montana).
T2 sequence: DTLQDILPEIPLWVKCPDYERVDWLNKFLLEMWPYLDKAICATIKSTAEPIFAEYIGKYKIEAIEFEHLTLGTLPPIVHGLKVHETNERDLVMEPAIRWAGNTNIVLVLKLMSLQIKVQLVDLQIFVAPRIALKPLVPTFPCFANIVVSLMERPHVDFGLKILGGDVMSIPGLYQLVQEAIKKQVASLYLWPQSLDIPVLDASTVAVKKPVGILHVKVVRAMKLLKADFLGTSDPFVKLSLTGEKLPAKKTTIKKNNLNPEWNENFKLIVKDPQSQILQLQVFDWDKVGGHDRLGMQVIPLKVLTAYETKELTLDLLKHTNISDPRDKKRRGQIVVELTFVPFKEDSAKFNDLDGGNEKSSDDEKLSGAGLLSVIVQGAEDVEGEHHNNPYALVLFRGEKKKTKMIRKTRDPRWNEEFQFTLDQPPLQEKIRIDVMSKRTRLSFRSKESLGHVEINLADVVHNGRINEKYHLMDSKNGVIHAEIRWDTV
Described as above.

The target of assay [3] is T3, VmD6PKL2 (D6 PROTEIN KINASE LIKE 2 of V. montana), two-hybrid bait PGBKT7-VmD6PKL2 (Vernicia montana).
T3 sequence: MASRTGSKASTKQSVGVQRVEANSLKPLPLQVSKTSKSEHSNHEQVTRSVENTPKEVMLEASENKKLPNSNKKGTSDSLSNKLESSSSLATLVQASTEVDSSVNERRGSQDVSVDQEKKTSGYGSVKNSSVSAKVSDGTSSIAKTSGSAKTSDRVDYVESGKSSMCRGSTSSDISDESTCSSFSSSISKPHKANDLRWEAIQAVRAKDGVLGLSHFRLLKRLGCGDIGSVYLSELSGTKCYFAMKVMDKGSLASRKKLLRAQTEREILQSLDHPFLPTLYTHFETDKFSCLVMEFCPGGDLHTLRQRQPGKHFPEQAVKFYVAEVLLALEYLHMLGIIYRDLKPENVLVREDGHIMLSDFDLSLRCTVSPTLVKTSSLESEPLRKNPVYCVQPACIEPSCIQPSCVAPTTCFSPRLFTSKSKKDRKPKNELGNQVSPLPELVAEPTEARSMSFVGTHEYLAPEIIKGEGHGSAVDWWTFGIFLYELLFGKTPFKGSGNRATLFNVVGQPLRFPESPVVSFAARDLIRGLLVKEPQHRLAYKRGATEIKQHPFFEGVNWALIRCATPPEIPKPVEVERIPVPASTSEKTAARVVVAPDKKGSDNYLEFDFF
Put plainly: two-hybrid; Gal4 system; bait PGBKT7-VmD6PKL2 in Y2HGold mated with PGADT7-cDNA library of Fof-1-infected V. montana root in Y187; SD/-Trp-Leu-His/X-α-Gal/AbA, then SD/-Ade-Trp-Leu-His/X-α-Gal/AbA; prey plasmids retransfected for one-to-one-interaction screening.

Results are given in words; binding and its absence hold for the method and conditions named. For some of these results: Binding seen in cells or lysates may run through a third protein. Some binding calls cover weakened binding; strength is not graded here. Tags and fused reporters may be left off the sequences shown.

B1: VmD6PKL2, endogenous in total protein from root tissue of V. montana (protein, UniProt A0A6C0GWK5 1-610)
chain: MASRTGSKASTKQSVGVQRVEANSLKPLPLQVSKTSKSEHSNHEQVTRSVENTPKEVMLEASENKKLPNSNKKGTSDSLSNKLESSSSLATLVQASTEVDSSVNERRGSQDVSVDQEKKTSGYGSVKNSSVSAKVSDGTSSIAKTSGSAKTSDRVDYVESGKSSMCRGSTSSDISDESTCSSFSSSISKPHKANDLRWEAIQAVRAKDGVLGLSHFRLLKRLGCGDIGSVYLSELSGTKCYFAMKVMDKGSLASRKKLLRAQTEREILQSLDHPFLPTLYTHFETDKFSCLVMEFCPGGDLHTLRQRQPGKHFPEQAVKFYVAEVLLALEYLHMLGIIYRDLKPENVLVREDGHIMLSDFDLSLRCTVSPTLVKTSSLESEPLRKNPVYCVQPACIEPSCIQPSCVAPTTCFSPRLFTSKSKKDRKPKNELGNQVSPLPELVAEPTEARSMSFVGTHEYLAPEIIKGEGHGSAVDWWTFGIFLYELLFGKTPFKGSGNRATLFNVVGQPLRFPESPVVSFAARDLIRGLLVKEPQHRLAYKRGATEIKQHPFFEGVNWALIRCATPPEIPKPVEVERIPVPASTSEKTAARVVVAPDKKGSDNYLEFDFF
As for B1, the binding entry in assay [1] and in assay [2] was “binds” each time.

B2: VmSYT3 (synaptotagmins 3), two-hybrid prey from the V. montana root cDNA library (protein, UniProt A0A6C0GYC8 1-538)
chain: MGFLSTLLGVLGFGFGLPIGLLIGFFLFVYSPPKDVKDPVVRPLHELDSDTLQDILPEIPLWVKCPDYERVDWLNKFLLEMWPYLDKAICATIKSTAEPIFAEYIGKYKIEAIEFEHLTLGTLPPIVHGLKVHETNERDLVMEPAIRWAGNTNIVLVLKLMSLQIKVQLVDLQIFVAPRIALKPLVPTFPCFANIVVSLMERPHVDFGLKILGGDVMSIPGLYQLVQEAIKKQVASLYLWPQSLDIPVLDASTVAVKKPVGILHVKVVRAMKLLKADFLGTSDPFVKLSLTGEKLPAKKTTIKKNNLNPEWNENFKLIVKDPQSQILQLQVFDWDKVGGHDRLGMQVIPLKVLTAYETKELTLDLLKHTNISDPRDKKRRGQIVVELTFVPFKEDSAKFNDLDGGNEKSSDDEKLSGAGLLSVIVQGAEDVEGEHHNNPYALVLFRGEKKKTKMIRKTRDPRWNEEFQFTLDQPPLQEKIRIDVMSKRTRLSFRSKESLGHVEINLADVVHNGRINEKYHLMDSKNGVIHAEIRWDTV
Take B2: the binding result in assay [3] was “binds”.

B3: VmBRXL4 (BREVIS RADIX-LIKE 4), two-hybrid prey from the V. montana root cDNA library (protein, UniProt A0A6C0GYA5 1-377)
chain: MLTCIARSKQPGDDSLSQPDESATTNTVNAKHHQAIKSLTSQLKDMALKASGAYRHCNPCTGPTTQSRFRNNLNESDAESEKFRWSLRRTGSSSSTTPRTWGKEMEARLKGISSSSGEGTPNSVNGSGRRVDPPVVFVEESEPKEWVAQVEPGVLITFVSLPRGGNDLKRIRFSRDMFNKWQAQRWWAENYDRVMELYNVQRFNRQAFPLPTPPRSEDESSKMESAEDSPVTPPLTRERLPRNLYRPTGMGMGYSSSDSLDHHSVQARLFCDSGLTSTPKLSSISGAKTETSSMDASIRSSSSREADRSGELSISNASDMETEWVEQDEPGVYITIRALPGGKRELRRVRFSREKFGEMHARLWWEENRARIHEQYL
For B3, in assay [3], the binding entry is “binds”.
